# Data taken from PubChem BioAssay AID1347423 (Functional Genomics Laboratory (NCATS/FGL), 2020).
# Among all 52,000 sequences or so, about 210 (0.4%) were called active.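 Rule for the calls: active = gene whose silencing raises cell survival under the drug, median off-target-corrected z-score across its silencing RNAs 2 or more; inactive = the rest.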 The list shows a part of the results.
# Experiment: Resistance to Poly (ADP-Ribose) Polymerase inhibitor: Gene Identification via Genome-wide siRNA Screen
# Conditions: mouse BRCA2 R2336H ES cells, olaparib, CellTiter-Glo viability; hits give high values
# Method in brief: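 Genome-wide siRNA screen (3 siRNAs/gene, 20 nM) in mouse ES cells carrying hypomorphic BRCA2 R2336H; olaparib 500 nM added 48 h post-transfection, CellTiter-Glo viability 72 h later. Normalized to plate-median negative control; MAD z-scores, gene median, seed-adjusted.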
row,Sequence,z-score
1,GCCUAAUUUUGUGUAUUCUTT against Ndrg4,inactive: 1.7
2,GGGUUUGAUUAGCUUAAUUTT against Olfr905,inactive: 0.182
3,GGUCUGAUAACUCUGGAGGTT against D11Moh34,inactive: 0.0405
4,GGAAGUGAAAGUGAAUUGGTT against Tia1,inactive: 0.435
5,GGAGUUCUGUCCAUUUUGATT against Olfr1198,inactive: -0.0939
6,GGAGAAGGAAGAGCUAAAGTT against Tpd52l1,inactive: 0.418
7,GGUCAGAAGUCCUUACUGGTT against Cyp2d10,inactive: -0.391
8,GCACUGAAAGUCUCGAAAGTT against 2410137M14Rik,inactive: -0.00462
9,GUCAAAUAUCCAUUAGAAGTT against Abpg,inactive: -0.429
10,GCGACUGACACUAACAGAATT against Wdr51a,inactive: -0.446
11,GGUUGGUGAUGGCACAAACTT against Cct8,inactive: -3.22
12,GGACACUGUCCAGAAGUUGTT against 1110007A06Rik,inactive: 0.962
13,CCAAGCAGAAAAGUUCCUUTT against Tcfe2a,inactive: -1.16
14,GGCACUACAACGGAACUCATT against Slco5a1,inactive: -2.64
15,GGUGGAGGUGUGAUGGAUUTT against Slamf1,inactive: -1.2
16,GGUGCAGAGCUUGAGAUGATT against 2700067D09Rik,inactive: -0.0465
17,GGCAAUGGAAGUUGGAACATT against Ptch1,inactive: -0.82
18,GCUAGUUUUUCAGAUUUCATT against Timm22,inactive: 1.06
19,GCUAAUAUUGUCGAUGUUATT against Ptger4,inactive: -2.21
20,GGAGUUUCCAUCACGAAGATT against Bmp4,inactive: 0.473
21,CGAGGCUAAGAGGAAUCAGTT against Capn5,inactive: -0.079
22,GGAGGAAAUAAAUAUUGGGTT against 9830005G06Rik,inactive: -0.647
23,CGAACUCAUCUACUGCUAUTT against Chst11,inactive: 0.0657
24,CCUAUUGAUUGUAUAUCCATT against 4921531G14Rik,inactive: 0.531
25,GCACAUUUAUUCAAGAACCTT against Ttn,inactive: -0.189
26,GGAAUUAUGCUGCUUUAAUTT against Xrcc2,inactive: 0.312
27,GGGUAACUAUAUCACAUACTT against Cacna1c,inactive: 0.88
28,GGCACCAUAGAUGUUUGAGTT against Cyp4f16,inactive: 1.71
29,GGUCAAGCUUAAAAAACCCTT against 1700027J05Rik,inactive: -0.341

# An excerpt of these results, as tab-separated lines.
row	Sequence	z-score
12	GGACACUGUCCAGAAGUUGTT against 1110007A06Rik	inactive: 0.962
13	CCAAGCAGAAAAGUUCCUUTT against Tcfe2a	inactive: -1.16
